Reference: PubChem BioAssay AID652243 (Drosophila RNAi Screening Center, 2013)

Purpose: 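Fly regulators of androgen-dependent reporter output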 (primary screen)
Cells: Drosophila S2R+ cells
Reagent: long dsRNA against Drosophila genes
Time to read-out: 72 h (48 h, then 24 h hormone)
Challenge: synthetic androgen R1881 at 10 nM for 24 h
Measurement: 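Per-well raw luminescence of the androgen-driven firefly reporter and of the Renilla control, two replicates each, without normalisation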
Direction: firefly reporter light: higher = more light from androgen-responsive reporter; Renilla control light: higher = more constitutive control signal (cell number, transfection)
Rule for the call: 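Across duplicate plates, a knock-down whose log firefly/Renilla ratio shifted a set fold down or up from the GFP/LacZ control mean was a hit; the downward cut appears as both 1.5 and 3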
Meaning of the calls: active = hit: reporter lowered or raised; inactive = no hit
The deposit covers about 24,000 reagents; shown is a random part of those that have a named target and a result. Of all reagents, 246 (1%) were called active. 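Plates not normalised; calls are printed but the firefly/Renilla ratio behind them is not deposited; fold cut for lowering reported inconsistently.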 Raw values vary from plate to plate and are shown uncorrected. Reagents against one gene are numbered here. Names joined by + are all predicted targets of the reagent. The record does not give: the amount of reagent.

gene | dsRNA no. | firefly reporter light, replicate 1 | firefly reporter light, replicate 2 | Renilla control light, replicate 1 | Renilla control light, replicate 2 | activity call
AANATL5 | 1 | 1.03e5 | 1.28e5 | 1.84e6 | 2.04e6 | inactive
CG30050 | 1 | 1.04e5 | 1.58e5 | 3.83e5 | 4.07e5 | inactive
ND-B8 | 1 | 1.50e5 | 1.06e5 | 1.11e6 | 7.26e5 | inactive
Gas8 | 1 | 5.07e5 | 8.67e5 | 4.85e5 | 7.27e5 | inactive
Gas8 | 2 | 4.09e5 | 4.52e5 | 1.60e6 | 1.37e6 | inactive
Gbp1 | 1 | 78414 | 93271 | 1.86e6 | 1.86e6 | inactive
CG45002 | 1 | 4.45e5 | 5.28e5 | 3.84e6 | 3.37e6 | inactive
Iris | 1 | 8.52e5 | 1.02e6 | 1.57e6 | 1.37e6 | inactive
Sap130 | 1 | 1.11e5 | 92620 | 1.72e6 | 1.37e6 | inactive
Sap130 | 2 | 2.79e5 | 3.27e5 | 1.68e6 | 1.56e6 | active
CG13857 | 1 | 2.68e5 | 3.04e5 | 2.95e6 | 3.00e6 | inactive
CG17738 | 1 | 1.48e5 | 94686 | 2.37e6 | 2.16e6 | inactive
CG17738 | 2 | 3.62e5 | 5.08e5 | 1.11e6 | 1.57e6 | inactive
CG11899 | 1 | 1.85e5 | 1.50e5 | 1.66e6 | 2.84e6 | inactive
fig | 1 | 1.16e5 | 1.39e5 | 1.90e6 | 2.29e6 | inactive
fig | 2 | 4.95e5 | 5.58e5 | 9.46e5 | 6.64e5 | inactive
deltaCOP | 1 | 73838 | 87183 | 6.26e5 | 6.47e5 | inactive
deltaCOP | 2 | 4.40e5 | 5.81e5 | 6.81e5 | 6.47e5 | inactive
CG4854 | 1 | 1.72e5 | 1.86e5 | 2.69e6 | 2.53e6 | inactive
CG4854 | 2 | 1.73e5 | 2.65e5 | 7.89e5 | 7.86e5 | inactive
CG4291 | 1 | 8.70e5 | 1.04e6 | 2.72e6 | 2.30e6 | inactive
CG4291 | 2 | 6.57e5 | 1.15e6 | 9.73e5 | 1.67e6 | inactive
ncm | 1 | 9.24e5 | 7.59e5 | 1.34e6 | 1.42e6 | inactive
ncm | 2 | 2.20e5 | 2.07e5 | 3.56e5 | 3.56e5 | inactive
CG16789 | 1 | 57476 | 70067 | 1.02e6 | 1.23e6 | inactive
ntc | 1 | 1.07e6 | 1.32e6 | 1.76e6 | 2.23e6 | inactive
CG42553 | 1 | 68208 | 70880 | 1.40e6 | 1.05e6 | inactive
CG11122 | 1 | 1.28e5 | 86937 | 7.07e5 | 7.76e5 | inactive
CG11122 | 2 | 2.71e5 | 2.51e5 | 7.11e5 | 5.65e5 | inactive
nan | 1 | 1.59e5 | 1.66e5 | 2.18e6 | 1.83e6 | inactive
Marf | 1 | 41969 | 63873 | 4.49e5 | 4.32e5 | inactive
Marf | 2 | 4.43e5 | 3.75e5 | 1.97e6 | 1.38e6 | inactive
sNPF | 1 | 3.80e5 | 3.20e5 | 7.66e5 | 5.25e5 | inactive
Snrk | 1 | 1.60e6 | 1.70e6 | 3.26e6 | 2.49e6 | inactive
Snrk | 2 | 9.09e5 | 6.45e5 | 1.46e6 | 9.68e5 | inactive
Snrk | 3 | – | – | – | – | inactive
yellow-g | 1 | 26529 | 24758 | 8.86e5 | 7.55e5 | inactive
CG33468 | 1 | 4.08e5 | 8.02e5 | 7.12e5 | 1.20e6 | inactive
CG8677 + CG31626 | 1 | 3.89e5 | 5.17e5 | 3.18e6 | 3.60e6 | inactive
GEFmeso | 1 | 2.56e5 | 3.67e5 | 3.67e5 | 4.88e5 | inactive
GEFmeso | 2 | 85933 | 93219 | 1.74e6 | 1.48e6 | inactive
GEFmeso | 3 | 4.91e5 | 5.28e5 | 1.63e6 | 1.61e6 | inactive
Ripalpha | 1 | 1.31e5 | 1.45e5 | 8.50e5 | 1.17e6 | inactive
Mur18B | 1 | 1.58e5 | 1.14e5 | 6.71e5 | 6.09e5 | inactive
Mur18B | 2 | 3.89e5 | 2.98e5 | 1.51e6 | 1.31e6 | inactive
Mur18B | 3 | 9.25e5 | 8.97e5 | 2.38e6 | 2.54e6 | inactive
RunxA | 1 | 57483 | 81604 | 3.13e5 | 1.85e5 | inactive
RunxA | 2 | 6.13e5 | 6.01e5 | 2.82e6 | 3.23e6 | inactive
RunxA | 3 | 5.33e5 | 5.96e5 | 2.15e6 | 2.23e6 | inactive
RunxA | 4 | 6.90e5 | 6.80e5 | 9.42e5 | 7.83e5 | inactive
RunxA | 5 | 2.13e5 | 2.21e5 | 6.22e5 | 6.22e5 | inactive
mRpL17 | 1 | 1.09e5 | 1.33e5 | 1.47e6 | 1.58e6 | inactive
Cbp53E | 1 | 1.19e6 | 8.06e5 | 1.52e6 | 9.94e5 | inactive
Cbp53E | 2 | 9.85e5 | 6.95e5 | 8.92e5 | 1.04e6 | inactive
Cbp53E | 3 | 8.50e5 | 6.96e5 | 1.42e6 | 1.57e6 | inactive
CG13743 | 1 | 9.86e5 | 1.36e6 | 1.36e6 | 2.02e6 | inactive
CG13743 | 2 | 1.03e6 | 1.02e6 | 9.37e5 | 1.04e6 | inactive
CG13743 | 3 | 7.26e5 | 8.25e5 | 1.92e6 | 2.20e6 | inactive

Already shown: 4 of the entries above.
gene | dsRNA no. | firefly reporter light, replicate 1 | firefly reporter light, replicate 2 | Renilla control light, replicate 1 | Renilla control light, replicate 2 | activity call
GEFmeso | 3 | 4.91e5 | 5.28e5 | 1.63e6 | 1.61e6 | inactive
Ripalpha | 1 | 1.31e5 | 1.45e5 | 8.50e5 | 1.17e6 | inactive
Mur18B | 1 | 1.58e5 | 1.14e5 | 6.71e5 | 6.09e5 | inactive
Mur18B | 2 | 3.89e5 | 2.98e5 | 1.51e6 | 1.31e6 | inactive
